Source: US20070275887A1, “Method of Inhibiting Secretase Activity” (priority 2003, published 2007)
Results are given in words; binding and its absence hold for the method and conditions named. In cells and extracts the contact can be indirect. Some results given as binding are weak or reduced against the parent protein; the word gives no strength.

By UniProt entry, the sequences of proteins in these tests, tags left out. Where a name states a change or a piece, a line headed by the entry shows the natural chain unless it says otherwise.
UniProt Q86TM6: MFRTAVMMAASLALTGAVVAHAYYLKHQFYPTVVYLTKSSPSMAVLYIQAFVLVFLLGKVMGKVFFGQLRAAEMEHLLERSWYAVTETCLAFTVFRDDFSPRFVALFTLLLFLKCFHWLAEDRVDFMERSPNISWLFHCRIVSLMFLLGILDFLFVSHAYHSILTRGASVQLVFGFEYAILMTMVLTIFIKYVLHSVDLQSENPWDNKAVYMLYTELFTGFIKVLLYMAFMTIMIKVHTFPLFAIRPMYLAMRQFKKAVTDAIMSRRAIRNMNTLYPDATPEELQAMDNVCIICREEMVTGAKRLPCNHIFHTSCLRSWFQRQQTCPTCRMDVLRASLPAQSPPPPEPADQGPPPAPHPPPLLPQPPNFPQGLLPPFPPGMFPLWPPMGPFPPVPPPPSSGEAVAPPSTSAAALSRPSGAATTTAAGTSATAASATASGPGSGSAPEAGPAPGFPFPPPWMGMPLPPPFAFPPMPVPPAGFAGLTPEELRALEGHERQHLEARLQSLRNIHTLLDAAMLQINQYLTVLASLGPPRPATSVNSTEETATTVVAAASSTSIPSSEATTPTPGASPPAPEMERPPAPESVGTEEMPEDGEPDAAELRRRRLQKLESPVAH

Molecular target: Flag-Syno dTM fusion protein (human) (UniProt Q86TM6)
Assay: GST pull-down assay with fragments

binding: binds
Binder: GYTPYGWLQLSWFQQIYARQYYMQYLAATAASGAFVPPPS [Herp amino acid sequence Nos. 161-200]
